From publication PMC6661308 (2019) come the findings set out here.

A short description of the data set: general procedure: Fmoc solid-phase peptide synthesis; 2-chlorotrityl chloride [(2-Cl) Trt] resin, substitution 1.4 mmol/g; HOBt/DIC/DIPEA; HATU/DIPEA for Boc-HYNIC. To be noted: whole synthesis.

On to “HYNIC-cyclo (Cys^1-Gly^2-Ala^3-Gly^4-His^5-Val^6-Pro^7-Cys^8)-Tyr^9-D-Tyr^10-GABA^11-D-Phe^12-yr^13-Gly^14”, for which the isolated yield is listed as 40%. Besides, where the note is “280 nm”, the “final HPLC purity” value is given as 98.8%.
